Data: patent US20220135694A1, “NOVEL CD40-BINDING ANTIBODIES” (LAVA THERAPEUTICS B.V., priority 2019, published 2022)
These are yes or no findings as the source states them, for the method shown. Some results given as binding are weak or reduced against the parent protein; the word gives no strength.

Protein sequences, listed by entry. Tags and fused reporters are not part of them. Residues count along the entry.
UniProt P25942, residues 21-193: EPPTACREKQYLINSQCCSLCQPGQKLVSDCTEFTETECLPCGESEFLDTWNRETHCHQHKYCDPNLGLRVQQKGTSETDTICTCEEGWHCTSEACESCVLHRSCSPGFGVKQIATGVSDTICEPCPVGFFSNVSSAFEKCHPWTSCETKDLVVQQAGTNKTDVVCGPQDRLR

B1: V19t (VHH)
VHH: QVQLQESGGGLVQAGGSLRLSCAASGRTFGRSAMGWFRQAPGKEREFVAAIGTRGGSTKYADSVKGRFTISTDNASNTVYLQMDSLKPEDTAVYRCAVRGPGYPSAAIFQDEYHYWGQGTQVTVSS
B2: V15t (VHH)
VHH: EVQLQESGGGLVQAGGSLRLSCVTSGSAFSSDTMGWFRQAPGKQRELVASISSRGVREYADSVKGRFTISRDNAKNTVYLQMNSLQPEDTAVYYCNRGALGLPGYRPYNNWGQGTQVTVSS
notes: Llama VHH with C-terminal Myc- and His6-tag; also called monovalent anti-CD40 VHH V15t
B3: V12t (VHH)
VHH: QVQLQESGGGLVQAGGSLRLSCAASGLVFKRYSMNWYRQPPGQQRGLVASISDSGVSTNYADSVKGRFTISRDNAKNIGYLQMNSLKPEDTAVYYCNMHTFWGQGTQVTVSS
notes: Llama VHH with C-terminal Myc- and His6-tag; also called monovalent anti-CD40 VHH V12t

molecular target: IgG1-Fc-tagged human CD40 (71174, BPS Bioscience) (human) (UniProt P25942); assay: ELISA screen, periplasmic extracts on plate-coated IgG1-Fc-tagged human CD40, anti-Myc detection

binding, binds:
B1, B2, B3
